Out of some 1,900 compounds screened, about 250 (13%) were called active. Inconclusive results (about 4%) are left out.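 Rule for the calls: active = fitted curve reaches 40% rescue activity at or below the top valid dose, in every test run; inconclusive = test runs disagree, some active and some inactive; inactive = every run misses the threshold or moves the wrong way.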 This is a selection; strong and weak results do not stand in their true shares. Entries with a potency or affinity are not part of this list.

This assay in a line: rescue of simvastatin-induced ATP loss – cell-based, C2C12 myotubes, ATP luminescence, cherry pick, dose response (AID 624405).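 Note: myotubes are challenged with simvastatin at 10 µM to lower ATP.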 The note with it: 48 h, scaled: DMSO wells 0, geranylgeraniol wells 100; at 19.5 µM (top of the series) unless noted.
With `COc1ccc(S(=O)(=O)Nc2cccc3c2O[C@H](CN(C)C(=O)Nc2ccc(C(F)(F)F)cc2)[C@H](C)CN([C@H](C)CO)C3=O)cc1`, the rescue activity (ATP increase) is inactive: 36.2%.
`CCN(CC)C(=O)CSc1ccccc1N`: the rescue activity (ATP increase) was inactive: 7.47%.
As for `CCOC(=O)c1c(N)c(C#N)c2n1CCCC2`, the figure is inactive: -5.84%.
For `Cc1ccc(CSc2nnc3nc(C)cc(C)n23)cc1` the value was inactive: -2.42%; for `CC(C)c1ccc(NS(=O)(=O)c2ccc(-n3cccn3)cc2)cc1`, inactive: 7.18%.
Take `COc1ccc(S(=O)(=O)Nc2cccc3c2O[C@@H](CN(C)C(=O)Nc2ccc(F)cc2)[C@H](C)CN([C@@H](C)CO)C3=O)cc1`: the rescue activity (ATP increase) is inactive: 2.58%.
As for `C[C@@H]1CN([C@H](C)CO)C(=O)c2cccc(NS(=O)(=O)c3cccs3)c2O[C@H]1CN(C)C(=O)Nc1ccc(C(F)(F)F)cc1`, the rescue activity (ATP increase) was inactive: -9.09%.
With `COc1ccc(NC(=O)Nc2ccc3c(c2)C(=O)N([C@@H](C)CO)C[C@H](C)[C@H](CN(C)Cc2ccc(C(F)(F)F)cc2)OCCCC[C@H](C)O3)cc1`, the rescue activity (ATP increase) was inactive: -13.3%.
In the case of `CCc1nc2ccccc2n(CCOCCOCCn2c(=O)c(CC)nc3ccccc32)c1=O`, the rescue activity (ATP increase) is inactive: -42.8%.
Turning to `C[C@H]1CCCCO[C@H](CN(C)C(=O)Nc2cccc3ccccc23)[C@@H](C)CN([C@@H](C)CO)C(=O)c2cc(NC(=O)Nc3ccc4c(c3)OCO4)ccc2O1`, the rescue activity (ATP increase) was inactive: 11.2% [at 21 µM].
In the case of `C[C@@H]1CN([C@@H](C)CO)C(=O)c2cc(NC(=O)Cc3ccccc3)ccc2O[C@@H](C)CCCCO[C@H]1CN(C)C(=O)C1CCCCC1`, the rescue activity (ATP increase) was inactive: 5.55%.
With `CSc1nc(NC(C)=O)nc(C)c1Cl`, the rescue activity (ATP increase) was inactive: 9.43%.
Regarding `COc1cc(C(=O)OCCN2CCOCC2)ccc1O`, the rescue activity (ATP increase) was inactive: 0.799%.
As for `O=C(CSc1ccc2c(c1)OCCO2)Nc1ccc(Br)cc1`, the figure is inactive: 38.9%; as for `O=C(Nc1cccc(-n2cnnn2)c1)c1ccco1`, inactive: 11%.
`CCOC(=O)C1(C)NC(c2ccc(N(C)C)cc2)C2C(=O)N(c3ccc(OC)cc3)C(=O)C21` (configuration not stated): the rescue activity (ATP increase) was inactive: -13.4%.
As to `COc1ccc(S(=O)(=O)Nc2ccc3c(c2)C(=O)N([C@@H](C)CO)C[C@H](C)[C@H](CN(C)S(=O)(=O)c2ccc(F)cc2)OCCCC[C@H](C)O3)cc1`, the rescue activity (ATP increase) is inactive: -20%.
In the case of `C[C@@H]1CCCCO[C@@H](CN(C)Cc2ccccc2)[C@@H](C)CN([C@H](C)CO)C(=O)c2cc(NC(=O)Nc3ccc4c(c3)OCO4)ccc2O1`, the rescue activity (ATP increase) is inactive: -8.81%.
Consider `C[C@H](CO)N1C[C@H](C)[C@H](CN(C)C(=O)C2CCCCC2)Oc2ncc(C#CC3CCCCC3)cc2C1=O`, for which the rescue activity (ATP increase) is inactive: -3.25%.
For `COc1ccccc1-c1noc(-c2ccncc2)n1` the value was inactive: 8.68%; for `CN1c2ccc(Br)cc2[C@H]2[C@H](CCN2C(=O)C2CC2)[C@H]1CO`, inactive: 36.7% [at 21 µM]; for `COc1ccc(C#Cc2ccc([C@H]3[C@H]4CN(C(=O)c5ccncc5)CCCCN4[C@H]3CO)cc2)cc1`, inactive: 28.5% [at 21 µM].
For the compound `Cc1[nH]nc2c1C(c1ccsc1)C(C#N)=C(N)O2` (configuration not stated), the rescue activity (ATP increase) was inactive: 15.8%.
As for `Cc1cc(C)c2c(CN3CCN(Cc4ccc5c(c4)OCO5)CC3)cc(=O)oc2c1`, the rescue activity (ATP increase) is inactive: 3.37%.
Turning to `O=C(COc1ccccc1)Nc1nn[nH]n1`, the rescue activity (ATP increase) was inactive: 21.2%.
Take `Cc1oc(C(=O)O)cc1COc1cccc2cccnc12`: the rescue activity (ATP increase) was inactive: -12.5%.
Consider `O=c1c2c([nH]c3ccc(Br)cc13)CCCC2`, for which the rescue activity (ATP increase) is inactive: -17.7%.
In the case of `COc1ccc(S(=O)(=O)Nc2cccc3c2O[C@H](CN(C)S(=O)(=O)c2ccc(Cl)cc2)[C@H](C)CN([C@@H](C)CO)C3=O)cc1`, the rescue activity (ATP increase) is inactive: 23%.
Consider `COC(=O)CCC(=O)NNC(=O)c1ccc(Br)cc1`, for which the rescue activity (ATP increase) is inactive: -6.21%.
For `CCCOc1cc(C)c(Cl)cc1S(=O)(=O)N(CC)CC`, the rescue activity (ATP increase) is inactive: 4.93%.
With `C[C@H](CO)N1C[C@H](C)[C@@H](CN(C)Cc2ccc(Oc3ccccc3)cc2)Oc2ccc(NC(=O)Nc3cccc4ccccc34)cc2CC1=O`, the rescue activity (ATP increase) is inactive: -6.91%.
Take `C[C@@H]1CN([C@H](C)CO)S(=O)(=O)c2ccc(/C=C/c3ccccc3)cc2O[C@@H]1CN(C)C(=O)NC1CCCC1`: the rescue activity (ATP increase) was inactive: 2.94%.
As for `C[C@H]1CN([C@@H](C)CO)C(=O)c2cc(NC(=O)c3ccncc3)ccc2O[C@H]1CN(C)Cc1ccc(Oc2ccccc2)cc1`, the rescue activity (ATP increase) is inactive: -18.6%.
For `O=C(C[C@H]1CC[C@@H]2[C@H](COC[C@H](O)CN2Cc2ccc(Oc3ccccc3)cc2)O1)N1CCN(c2ccccc2)CC1` the value was inactive: -13.6%.
With `Cc1ccc(Cn2ncc3c(NCCCN(C)C)ncnc32)cc1`, the rescue activity (ATP increase) is inactive: 23.2%.
As for `Nc1cccc2c1C(=O)N(C(=O)c1cccc(S(=O)(=O)N3CCCC3)c1)C2=O`, the figure is inactive: -5.95%; as for `Cc1noc(C)c1S(=O)(=O)Nc1ccc2c(c1)C(=O)N([C@H](C)CO)C[C@@H](C)[C@@H](CN(C)S(=O)(=O)c1ccc(Cl)cc1)OCCCC[C@H](C)O2`, inactive: -40.2%; as for `C[C@@H]1CCCCO[C@H](CN(C)S(=O)(=O)c2cccs2)[C@@H](C)CN([C@H](C)CO)C(=O)c2cc(NC(=O)Nc3ccc(F)cc3)ccc2O1`, inactive: -0.785% [at 21 µM].
Take `Cc1ccc(S(=O)(=O)N(C)C[C@H]2Oc3ccc(NC(=O)Cc4ccccc4)cc3CC(=O)N([C@@H](C)CO)C[C@@H]2C)cc1`: the rescue activity (ATP increase) was inactive: 10.6%.
In the case of `C[C@@H]1CN([C@H](C)CO)C(=O)c2cc(NC(=O)Cc3cn(C)c4ccccc34)ccc2O[C@@H]1CN(C)C(=O)Nc1ccc2c(c1)OCO2`, the rescue activity (ATP increase) is inactive: 1.17%.
As for `CCCCNC(=O)c1ccc(CS(=O)(=O)c2cccc(C(F)(F)F)c2)o1`, the figure is inactive: 5.19% [at 10 µM].
On to `CCc1nnc(SCC(=O)Nc2ccc(C(C)=O)cc2)nc1CC`, for which the rescue activity (ATP increase) is inactive: -14.8%.
As to `O=C(c1cnccn1)N1CCN(C/C=C/c2ccccc2)CC1`, the rescue activity (ATP increase) was inactive: 16.1%.
Take `C[C@H](CO)N1C[C@H](C)[C@@H](CN(C)Cc2ccc(C(F)(F)F)cc2)Oc2ccc(NC(=O)Cc3ccccc3)cc2CC1=O`: the rescue activity (ATP increase) is inactive: 28.5%.
With `C[C@H](CO)N1C[C@H](C)[C@@H](CN(C)S(=O)(=O)c2ccccc2)OCCCC[C@H](C)Oc2ccc(N(C)C)cc2C1=O`, the rescue activity (ATP increase) was inactive: -3.9%.
In the case of `N#Cc1ccc(NC(=O)c2cc(-c3cccs3)on2)cc1`, the rescue activity (ATP increase) was inactive: 36.1%.
In the case of `CCCC(=O)Nc1ccc2c(c1)nc(CN1CCN(C(C)=O)CC1)n2C`, the rescue activity (ATP increase) was inactive: 8.12%.
Turning to `C[C@@H]1CN([C@H](C)CO)C(=O)c2cc(NC(=O)Nc3ccccc3)ccc2O[C@@H](C)CCCCO[C@@H]1CN(C)Cc1ccc(Cl)c(Cl)c1`, the rescue activity (ATP increase) is inactive: 0.896%.
As for `CN(C)C(CNC(=O)NC1CCCCC1)c1cccnc1` (configuration not stated), the figure is inactive: 3.47%; as for `C[C@H]1CCCCO[C@H](CN(C)S(=O)(=O)c2cccs2)[C@@H](C)CN([C@@H](C)CO)C(=O)c2cc(NC(=O)Nc3ccc(F)cc3)ccc2O1`, inactive: -16.9%; as for `Cc1cc(C)nc(-n2nc(C)c3c(C(F)F)cc(C)nc32)n1`, inactive: 24.7%.
For the compound `COc1cccc(C#Cc2ccc3c(c2)O[C@@H](CN(C)C(=O)CN2CCOCC2)[C@H](C)CN([C@@H](C)CO)S3(=O)=O)c1`, the rescue activity (ATP increase) is inactive: -12.1%.
For `C[C@H](CO)N1C[C@H](C)[C@@H](CN(C)CC2CCCCC2)Oc2ccc(NC(=O)Nc3cccc4ccccc34)cc2C1=O`, the rescue activity (ATP increase) was inactive: 4.47%.
`CCC(=O)N1CCc2cc(S(=O)(=O)NCCCN3CCN(Cc4ccccc4)CC3)ccc21`: the rescue activity (ATP increase) was inactive: 6.61%.
For the compound `C[C@H]1CCCCO[C@H](CN(C)C(=O)C2CCCCC2)[C@@H](C)CN([C@@H](C)CO)C(=O)c2cc(NC(=O)NC3CCCCC3)ccc2O1`, the rescue activity (ATP increase) is inactive: 17.2% [at 21 µM].
Regarding `Cc1sc2nc3ccc(N4CCCCC4)nn3c(=O)c2c1C`, the rescue activity (ATP increase) is inactive: -16.1%.
As for `COc1cccc(C(=O)n2ccc(-c3cccs3)n2)c1`, the rescue activity (ATP increase) was inactive: 3.36%.
`CC(C)C[C@H](NC(=O)c1[nH]cnc1C(=O)N[C@@H](Cc1ccccc1)C(=O)OCc1ccccc1)C(=O)OCc1ccccc1`: the rescue activity (ATP increase) is inactive: 25.9%.
On to `C[C@H](CO)N1C[C@H](C)[C@H](CN(C)S(=O)(=O)c2ccccc2)Oc2ncc(C#Cc3ccc(F)cc3)cc2C1=O`, for which the rescue activity (ATP increase) is inactive: -77.8% [at 21 µM].
As to `CN1CCN(c2nc3c(c(=O)n(C)c(=O)n3C)n2Cc2cccc3ccccc23)CC1`, the rescue activity (ATP increase) was inactive: 32.6%.
`CCCCCC1CC(CC(=O)O)C(=O)O1` (configuration not stated): the rescue activity (ATP increase) is inactive: 17.5%.
As for `C[C@H]1CN([C@@H](C)CO)S(=O)(=O)c2ccc(C3=CCCC3)cc2O[C@H]1CN(C)C(=O)Nc1ccc2c(c1)OCO2`, the rescue activity (ATP increase) was inactive: 8.35%.
In the case of `O=c1[nH]c2ccccc2nc1/C=C/c1ccc(Cl)cc1`, the rescue activity (ATP increase) was inactive: -51.8%.
For `O=c1c2[nH]c3cccc(Cl)c3c2ncn1CCN1CCCCC1` the value was inactive: -3.58%; for `C[C@@H]1CN([C@H](C)CO)C(=O)c2cc(C3=CCCCC3)cnc2O[C@@H]1CN(C)C(=O)c1ccccn1`, inactive: 5.53%.
For `CC(c1nc2ccccc2c(=O)[nH]1)N1CCN(C)CC1` (configuration not stated) the value was inactive: -6.72%; for `Cc1cccc(OCC(=O)Nc2cc(C)ccc2O)c1`, inactive: 23.5%.
Turning to `CC1(C)CNC(=O)c2sc(NC(=O)CN3CCOCC3)nc2C1`, the rescue activity (ATP increase) is inactive: -18.2%.
For `C[C@@H]1CN([C@@H](C)CO)C(=O)c2cccc(N(C)C)c2O[C@@H]1CN(C)Cc1ccc(Oc2ccccc2)cc1` the value was inactive: 4.56%; for `Cc1nnc(NC(=O)C2CCCN(S(=O)(=O)Cc3ccccc3)C2)s1` (configuration not stated), inactive: 8.89%; for `O=C(CSc1nnnn1-c1cccc2c1CCCC2)N1CCCCC1`, inactive: 5.11%.
Consider `C[C@H]1CN([C@@H](C)CO)C(=O)c2cc(C3=CCCCC3)cnc2O[C@H]1CN(C)C(=O)C1CCOCC1`, for which the rescue activity (ATP increase) was inactive: 17.4%.

These data come from PubChem BioAssay AID624405 (Broad Institute, 2012).
